Experimental data from PubChem BioAssay AID504467 (National Center for Advancing Translational Sciences (NCATS), 2011).
The whole screen tested about 330,000 compounds, of which about 7,700 (2.3%) were called active. This list was built around the results that the source calls inconclusive (neither active nor inactive); the mix of calls is not that of the screen. Calls follow the shape of the dose curve; as a rule, active = well fitted inhibition curve with a large enough effect; inconclusive = small, poorly fitted or top-dose-only effect, or effect the other way; inactive = flat fitted curve, though single readings scatter. A potency beside an inconclusive call is a rough fit, not a confirmed value.

Assay: qHTS screen for small molecules that inhibit ELG1-dependent DNA repair in human embryonic kidney (HEK293T) cells expressing luciferase-tagged ELG1; also: nearly all actives have a fitted effect of over 55% in size
Conditions: HEK293T ELG1-luciferase reporter, luminescence, 16 h, DNA damage induced by 5-fluorouridine; activity change, negative = inhibition: at 46.1 µM (top of the series)
How it was run: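 Step one: seed 2,000 cells per well. Step two: pin-transfer compound or DMSO alongside 5-fluorouridine. Step three: incubate 16 hr, 37 °C, 5% CO2. Step four: add ONE-Glo, wait 30 min, read luminescence.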
% is scaled to controls: 0 for no effect and ±100 for the full control effect; potency is read from the fitted curve at half-maximal effect.

Q: With `COc1ccc(-c2csc3ncnc(N4CCN(S(=O)(=O)c5ccc(Cl)s5)CC4)c23)cc1` as the compound, how does the Potency read?
A: The Potency was active: 8.2 µM.

Q: With `Cc1ccc(NC(=O)COC(=O)c2cccc3c(=O)c(C)c(-c4ccccc4)oc23)cc1` as the compound, how does the Potency read?
A: The Potency was inconclusive: 16.4 µM [inhibitor, single point].

Q: For `Oc1cc2c(cc1C(c1ccc(Br)cc1)N1CCCC1)OCO2` (configuration not stated), which Potency is on record?
A: The Potency was inconclusive: 32.6 µM [activator, partial curve, poor fit].

Q: With `Cn1nnnc1SCC(=O)NC(=O)Cc1ccccc1` as the compound, how does the Potency read?
A: The Potency was “inactive”.

Q: For `O=C(Nc1nc2ccccc2[nH]1)c1ccccc1O`, which Potency is on record?
A: Its Potency is inconclusive: 1.46 µM [activator, full curve].

Q: Which Potency does the source give for `COc1cc(CNc2ccc3[nH]c(=O)[nH]c3c2)ccc1OCc1cccc(C)c1` here?
A: Its Potency is inconclusive: 0.651 µM [inhibitor, single point].

Q: With `CC(C)(C)n1cn[nH]c1=S` as the compound, how does the Potency read?
A: The Potency was “inactive”.

Q: For `O=C(COC(=O)C12CC3CC(CC(Cl)(C3)C1)C2)N1CCCCC1`, which Potency is on record?
A: The Potency was inconclusive: 20.6 µM [activator, single point].

Q: For `CCOC(=O)Cn1c(=O)n(Cc2ccco2)c(=O)c2ccc(C(=O)NC3CCCC3)cc21`, which Potency is on record?
A: The Potency was inconclusive: 18.4 µM [inhibitor, single point].

Q: With `C(=N\Nc1nn[nH]n1)/c1ccccc1` as the compound, how does the Potency read?
A: The Potency was “inactive”.

Q: For `CCN(CC(=O)Nc1ccccc1C(F)(F)F)C(=O)c1oc2ccc(OC)cc2c1C`, which Potency is on record?
A: Its Potency is inconclusive: 11.6 µM [activator, partial curve].

Q: With `Cc1cc(C)cc(N(CC(=O)NC(C)C)C(=O)CCC(=O)Nc2ccccn2)c1` as the compound, how does the Potency read?
A: Its Potency is “inactive”.

Q: With `CCCOc1ccc(C(=O)CCC(=O)OCC(=O)N2CC(=O)Nc3ccccc32)cc1` as the compound, how does the Potency read?
A: The Potency was “inactive”.

Q: For `CCc1c(C2(O)CCCCC2)[nH]c2c(C(=O)OC)cc(Cl)cc12`, which Potency is on record?
A: The Potency was inconclusive: 25.9 µM [activator, single point].

Q: Which Potency does the source give for `Cc1ccc(C)c(NC(=O)C2CCN(S(=O)(=O)c3ccc4c(c3)NC(=O)CO4)CC2)c1` here?
A: The Potency was “inactive”.

Q: Which Potency does the source give for `CCN1C(=NCC2CC2)N[C@@H](c2ccccc2)C(C(=O)OC)=C1C` here?
A: The Potency was “inactive”.

Q: Which Potency does the source give for `CCN(CC)CCCNc1nc2ccccc2c2nc(-c3ccncc3)nn12` here?
A: The Potency was “inactive”.

Q: With `COc1ccc(S(=O)(=O)Nc2ccc(Cc3ccncc3)cc2)cc1OC` as the compound, how does the Potency read?
A: The Potency was “inactive”.

Q: Which Potency does the source give for `COc1ccc(S(=O)(=O)Nc2ccc3c(c2)C(=O)N([C@H](C)CO)C[C@H](C)[C@@H](CN(C)C(=O)Nc2c(C)noc2C)O3)cc1` here?
A: Its Potency is “inactive”.

Q: For `COc1ccc(-c2cc(C(=O)N3CCCCCC3)c3ccccc3n2)cc1`, which Potency is on record?
A: The Potency was “inactive”.

Q: For `CCN=c1scc(-c2ccco2)n1/N=C/c1ccc(O)cc1`, which Potency is on record?
A: The Potency was inconclusive: 4.61 µM [activator, partial curve].

Q: Which Potency does the source give for `CCOC(=O)c1cnc2ccc(OCC)cc2c1NCc1ccccc1` here?
A: The Potency was inconclusive: 23.1 µM [inhibitor, partial curve].

Q: Which Potency does the source give for `CCOC(=O)C1CCCN(C(=O)c2cc3c(C)nc4ccccc4c3o2)C1` (configuration not stated) here?
A: The Potency was inconclusive: 23.1 µM [inhibitor, single point].

Q: Which Potency does the source give for `Nc1cccc2c1C(=O)N(CCOc1ccccc1F)C2=O` here?
A: The Potency was inconclusive: 0.92 µM [activator, partial curve].

Q: With `COc1ccccc1C(C)Nc1ccc(S(=O)(=O)N2CCN(C)CC2)cc1[N+](=O)[O-]` (configuration not stated) as the compound, how does the Potency read?
A: The Potency was “inactive”.

Q: Which Potency does the source give for `Cn1nc(CC(=O)NCc2cccc3ccccc23)c2ccccc2c1=O` here?
A: The Potency was inconclusive: 13 µM [inhibitor, partial curve].

Q: With `CCCCCC(=O)N1CCCCC1` as the compound, how does the Potency read?
A: The Potency was “inactive”.

Q: For `CC1=CC(C)(C)n2c(O)c(N=N)c3c(C)ccc1c32`, which Potency is on record?
A: Its Potency is “inactive”.

Q: For `CSc1ccc(/C=N/n2c(C)nnc2C)cc1`, which Potency is on record?
A: Its Potency is inconclusive: 23.1 µM [activator, partial curve].

Q: Which Potency does the source give for `CCS(=O)(=O)N1CCC(C(=O)NCCC2=CCCCC2)CC1` here?
A: Its Potency is “inactive”.

Q: Which Potency does the source give for `COc1ccc(OC)c2c1sc(=NC(=O)c1cccc(N3C(=O)CCC3=O)c1)n2C` here?
A: Its Potency is inconclusive: 16.4 µM [inhibitor, partial curve, poor fit].

Q: With `CCOC(=O)C1CCN(c2ncnc3c2[nH]c2cccc(OC)c23)CC1` as the compound, how does the Potency read?
A: The Potency was inconclusive: 32.6 µM [inhibitor, single point].

Q: With `CN(C)/C=C(\C=N\OCc1ccc(Cl)cc1Cl)C(=O)Nc1ccc(Cl)c(Cl)c1` as the compound, how does the Potency read?
A: The Potency was “inactive”.

Q: Which Potency does the source give for `CCOC(=O)C1CCN(S(=O)(=O)c2ccc(OC)c(C(=O)N3CCCCCC3)c2)CC1` here?
A: Its Potency is inconclusive: 29.1 µM [inhibitor, single point].

Q: For `COc1ccc(NS(=O)(=O)c2ccc(S(=O)(=O)N3CCCC3)cc2)cc1`, which Potency is on record?
A: Its Potency is “inactive”.

Q: Which Potency does the source give for `Cn1nc(C(F)(F)F)cc1-c1ccc(/C=C(\C#N)C(=O)c2cccc(C(F)(F)F)c2)s1` here?
A: The Potency was inconclusive: 14.6 µM [activator, partial curve].

Q: With `CC(=O)c1ccc2c(c1)OCCOCCOc1ccccc1OCCOCCO2` as the compound, how does the Potency read?
A: The Potency was “inactive”.

Q: Which Potency does the source give for `Cc1ccc2nc(N(CCCN(C)C)C(=O)COc3ccc(Cl)cc3)sc2c1` here?
A: Its Potency is “inactive”.

Q: With `CCc1ccc(N(CC)C(=O)c2ccc3c(Cl)c4c(nc3c2)CCC4)cc1` as the compound, how does the Potency read?
A: The Potency was inconclusive: 20.6 µM [inhibitor, single point].

Q: With `COC(=O)NC(=S)Nc1ccc(Oc2ccc(Cl)cc2)c(Cl)c1` as the compound, how does the Potency read?
A: The Potency was “inactive”.

Q: For `COc1ccc(NC(=O)Nc2cccc(C(F)(F)F)c2)cn1`, which Potency is on record?
A: The Potency was inconclusive: 29.1 µM [inhibitor, single point].

Q: With `CCn1c(COc2ccccc2C)nc2ccccc21` as the compound, how does the Potency read?
A: Its Potency is inconclusive: 20.6 µM [activator, partial curve].

Q: Which Potency does the source give for `Oc1c(CN2CCOCC2)cc(COCc2ccccc2)c2cccnc12` here?
A: Its Potency is inconclusive: 4.11 µM [inhibitor, single point].

Q: With `Cc1cc(C(=O)OCC(=O)N2C(C)CCCC2C)c2ccccc2n1` (configuration not stated) as the compound, how does the Potency read?
A: The Potency was inconclusive: 29.1 µM [inhibitor, single point].

Q: For `CC(=O)Nc1ccccc1NS(=O)(=O)c1ccc(Cl)cc1`, which activity change, negative = inhibition is on record?
A: Its activity change, negative = inhibition is inconclusive: 23.9% [activator].

Q: Which Potency does the source give for `CCOCC(=O)Nc1cc(C(=O)Nc2cc(C)cc(C)c2)ccc1Cl` here?
A: Its Potency is inconclusive: 11.6 µM [activator, partial curve].

Q: With `CCn1ccnc1CN(C)Cc1cn[nH]c1-c1ccc(OC)c(F)c1` as the compound, how does the Potency read?
A: The Potency was inconclusive: 8.2 µM [inhibitor, partial curve].

Q: With `COc1ccc(-c2nc(SCC(=O)N3CCOCC3)n[nH]2)cc1` as the compound, how does the Potency read?
A: The Potency was inconclusive: 29.1 µM [activator, partial curve, poor fit].

Q: Which Potency does the source give for `CCc1ccc(NC(=S)N2CCCC2)cc1` here?
A: Its Potency is inconclusive: 13 µM [activator, partial curve].

Q: Which Potency does the source give for `CN(C)/C=C/C(=O)c1ccc(Br)cc1` here?
A: The Potency was inconclusive: 16.4 µM [activator, partial curve].

Q: Which Potency does the source give for `COc1ccccc1Oc1ccc(Oc2ccccc2OC)cc1` here?
A: Its Potency is “inactive”.

Q: With `COc1ccc(NS(=O)(=O)c2cc(NC(=O)c3ccco3)ccc2N2CCCCC2)cc1` as the compound, how does the Potency read?
A: The Potency was inconclusive: 25.9 µM [inhibitor, single point].

Q: For `CCOCCCNC(=O)c1ccc(Br)cc1`, which Potency is on record?
A: Its Potency is inconclusive: 25.9 µM [activator, single point].

Q: With `Cc1cc(C)c2nc(-c3ccccn3)cc(C(=O)Nc3ccc(S(=O)(=O)Nc4cc(C)on4)cc3)c2c1` as the compound, how does the Potency read?
A: Its Potency is “inactive”.

Q: Which Potency does the source give for `Nc1ccc2oc(-c3cc(Br)ccc3Cl)nc2c1` here?
A: Its Potency is inconclusive: 29.1 µM [activator, single point].

Q: With `O=C(Nc1ccc(F)cc1F)c1ccc2c(=O)n3c(nc2c1)CCC3` as the compound, how does the Potency read?
A: Its Potency is inconclusive: 2.59 µM [activator, full curve].

Q: With `CCOC(=O)/C(N=Nc1c(C)n(C)n(-c2ccccc2)c1=O)=C(/O)c1ccccc1` as the compound, how does the Potency read?
A: The Potency was inconclusive: 29.1 µM [inhibitor, single point].

Q: With `CC(=O)Nc1ccc(NC(=O)C(C)Sc2n[nH]c(-c3ccc(C)cc3)n2)cc1` (configuration not stated) as the compound, how does the Potency read?
A: The Potency was “inactive”.

Q: For `Cc1ccc(-c2cc(C(=O)Nc3ccncc3)c3ccccc3n2)cc1`, which Potency is on record?
A: Its Potency is inconclusive: 10.3 µM [activator, single point].

Q: Which Potency does the source give for `Cc1c(C(=O)c2ccc(Cl)c(Cl)c2)cnc2cc3c(cc12)OCO3` here?
A: Its Potency is inconclusive: 23.1 µM [inhibitor, single point].

Q: Which Potency does the source give for `CCOC(=O)C(C)Sc1nc(-c2ccccc2)nc2ccccc12` (configuration not stated) here?
A: The Potency was “inactive”.

Q: For `C/C(Cn1cnc([N+](=O)[O-])n1)=N\NC(=O)c1ccccc1`, which Potency is on record?
A: The Potency was inconclusive: 20.6 µM [activator, single point].

Q: With `Cc1cccc2nc(CSCc3ccco3)cn12` as the compound, how does the Potency read?
A: The Potency was inconclusive: 3.16 µM [activator, partial curve].

Q: For `O=C(c1ccc(Cl)c(S(=O)(=O)N2CCCC2)c1)N1CCN(c2ccccc2F)CC1`, which Potency is on record?
A: The Potency was inconclusive: 14.6 µM [inhibitor, single point].

Q: Which Potency does the source give for `CCOC(=O)c1cc(-c2ccc(C)cc2)n(CCC(=O)NC(C)CC)c1C` (configuration not stated) here?
A: Its Potency is inconclusive: 29.1 µM [inhibitor, single point].

Q: For `CO/N=C(/C(=O)N[C@@H]1C(=O)N2C(C(=O)O)=CCS[C@H]12)c1cnc(N)s1`, which Potency is on record?
A: Its Potency is “inactive”.

Q: Which Potency does the source give for `COc1ccccc1CN1CC(C(=O)NCCSc2nnnn2C)CCC1=O` (configuration not stated) here?
A: The Potency was “inactive”.

Q: For `COc1cc(C2C3=C(CCCC3=O)Nc3c2c(C)nn3-c2cccc(C)c2)cc(OC)c1O` (configuration not stated), which Potency is on record?
A: Its Potency is inconclusive: 18.3 µM [inhibitor, single point].

Q: For `Cc1cc(NC(=O)c2ccc([N+](=O)[O-])cc2)no1`, which Potency is on record?
A: The Potency was inconclusive: 2.06 µM [activator, full curve].

Q: With `CCN1CCN(Cc2ccc(NC(=O)c3ccc(C)c(NC(=O)c4c[nH]c5cc(C(F)(F)F)ccc5c4=O)c3)cc2C(F)(F)F)CC1` as the compound, how does the Potency read?
A: Its Potency is inconclusive: 29.1 µM [inhibitor, single point].

Q: Which Potency does the source give for `O=C(/C=C/Nc1cccc(O)c1)c1ccccc1` here?
A: Its Potency is inconclusive: 6.51 µM [activator, single point].

Q: Which Potency does the source give for `Cc1ccc(NC(=O)CN2C(=O)S/C(=C/c3ccc(-c4cccc(C(=O)O)c4)o3)C2=O)cc1` here?
A: Its Potency is inconclusive: 29.1 µM [inhibitor, single point].
